The test deals with patients with kidney cancer. How it is done: Both peri- and post-diagnostic antihistamine use was analyzed, using Cox regression models, as well as different subgroups of patients with regard to age, gender (as a proxy for sex) and tumor status.
Material and methods Linking the Cancer Registry with the Drug Prescription Registry and Cause of Death Registry the survival of over 500 000 cancer patients with cancer in the breast-, prostate, ventrikel, pancreas, kidney, colo-rectal, lung, uterus, ovary, brain, melanoma, lymph gland and bone marrow was studied between 2005-2014.
Use of the six major antihistamines was established using the Swedish Prescribed Drug Register, a record of all dispensed prescribed pharmaceuticals in Sweden since July 1st 2005. To be included in the registry at least 2 weeks of prescription is required. […] Causes of death were obtained from the Swedish Cause of Death Register, a database where all deaths have been recorded since 1952. […]
We analyzed both the peri- and cumulative post-diagnostic use of antihistamines among melanoma patients. […]
For the cumulative post-diagnostic antihistamine use analysis, mortality rates for antihistamine users were compared to those of non-users through a Cox regression model allowing for time varying covariates, and survival time was measured in years since diagnosis. […] The impact of the cumulative DDDs was assessed after log transformation of the DDDs plus one3. […]

For `Clc1ccc2c(c1)CCc1cccnc1C2=C1CCNCC1` [desloratadine], for the setting “kidney cancer, baseline 5 year survival about 75% 2016, FIG. 1”, the “5 year survival chance increased by (kidney cancer)” value amounted to 30%. Besides, the “effect of use on kidney cancer survival” value (users vs non-users, in words) was “consistently beneficial effect”.

The record behind these values is patent US20240226083A9, “MEDICAMENT FOR TREATMENT AND/OR PROPHYLACTIC TREATMENT OF CANCERS” (Belina Pharma AB, priority 2019, published 2024).
